Measured values as given in patent US9345681B2, “Anti-obesity agent comprising high-purity EPA” (MOCHIDA PHARMACEUTICAL CO., LTD., priority 2011, dated 2016).

System: obesity model hamster fed on a high fat diet
Experiment: Effect of suppressing the body weight gain in the obesity model hamster fed on a high fat diet
Type: in vivo, Syrian hamsters
Details: for daily dietary intake (in terms of energy): between the high-fat diet group, the EPA group and the DHA group; for observation of the liver (fatty liver): high fat diet + 2% test substance
Method: 6 week old male Syrian hamsters (Japan SLC, Inc.) were bred at a temperature of 23±3° C. and a light-dark cycle of 12 hours on a free feeding of standard diet for 11 days, and the hamsters were divided into 4 groups, namely, standard forage group (Standard) (n=4), high-fat diet group (n=8), EPA group (HF+EPA-E) (n=8), and DHA group (HF+DHA-E) (n=7). The standard diet used was CLEA Rodent Diet CE-2 (4.8% fat) manufactured by CLEA Japan, Inc. and the high fat diet (HF) used was Hypercholesterolemic Hamster Diet (9% sugar and fat 21% fat) manufactured by Wilson. The effects of the EPA and DHA on the body weight gain were confirmed by using hamsters fed on a high fat diet (HF). During the feeding on the high fat diet, a mixed diet of high fat diet+2% EPA-E (comprising 98.24% EPA-E manufactured by Nippon Suisan Kaisha, Ltd.) was given to the EPA group, and a mixed diet of high fat diet+2% DHA-E (comprising 97.4% DHA-E manufactured by Equateq Ltd.) was given to the DHA group (with the diet changed once a day in the morning). The control group was given a high fat diet or a standard diet (comprising 4.8% fat) (with the diet changed once a day in the morning). The body weight was measured from the day of the start of the administration. The body weight gain rate on the 21st day was higher in the group fed on the high-fat diet group compared to the standard forage group, and the group fed on the high-fat diet was in the condition of obesity. […] This confirms that the action of suppressing the body weight gain (or reducing the body weight) of the EPA-E is realized by the action of suppressing (or reducing) the amount of fat, namely, the anti-obesity action.

Row | Compound | daily dietary intake (in terms of energy) | observation of the liver (fatty liver)
1 | CC/C=C\C/C=C\C/C=C\C/C=C\C/C=C\CCCC(=O)OCC [EPA-E, ethyl icosapentate] | significant difference was not recognized | clear fatty liver was not found
2 | CC/C=C\C/C=C\C/C=C\C/C=C\C/C=C\C/C=C\CCC(=O)OCC [DHA-E, ethyl docosahexaenoate] | significant difference was not recognized | clear fatty liver was not found
